PMC11514929

Target: FLAG-Akt
Experiment: co-IP; FLAG-tagged bait immunoprecipitated with anti-FLAG M2 agarose beads overnight at 4 °C from RIPA lysates of transfected HEK-293 cells; blots for GFP or HA; cells treated with dopamine (10 μM), quinpirole (100 nM) or isoproterenol (10 μM) for 5 min and washed/rechallenged, or with 10 ng/mL EGF (5 or 20 min, or washed/rechallenged)

B1: HA-USP33 (enzyme, UniProt Q8TEY7 1-942)
chain: MTGSNSHITILTLKVLPHFESLGKQEKIPNKMSAFRNHCPHLDSVGEITKEDLIQKSLGTCQDCKVQGPNLWACLENRCSYVGCGESQVDHSTIHSQETKHYLTVNLTTLRVWCYACSKEVFLDRKLGTQPSLPHVRQPHQIQENSVQDFKIPSNTTLKTPLVAVFDDLDIEADEEDELRARGLTGLKNIGNTCYMNAALQALSNCPPLTQFFLDCGGLARTDKKPAICKSYLKLMTELWHKSRPGSVVPTTLFQGIKTVNPTFRGYSQQDAQEFLRCLMDLLHEELKEQVMEVEEDPQTITTEETMEEDKSQSDVDFQSCESCSNSDRAENENGSRCFSEDNNETTMLIQDDENNSEMSKDWQKEKMCNKINKVNSEGEFDKDRDSISETVDLNNQETVKVQIHSRASEYITDVHSNDLSTPQILPSNEGVNPRLSASPPKSGNLWPGLAPPHKKAQSASPKRKKQHKKYRSVISDIFDGTIISSVQCLTCDRVSVTLETFQDLSLPIPGKEDLAKLHSSSHPTSIVKAGSCGEAYAPQGWIAFFMEYVKRFVVSCVPSWFWGPVVTLQDCLAAFFARDELKGDNMYSCEKCKKLRNGVKFCKVQNFPEILCIHLKRFRHELMFSTKISTHVSFPLEGLDLQPFLAKDSPAQIVTYDLLSVICHHGTASSGHYIAYCRNNLNNLWYEFDDQSVTEVSESTVQNAEAYVLFYRKSSEEAQKERRRISNLLNIMEPSLLQFYISRQWLNKFKTFAEPGPISNNDFLCIHGGVPPRKAGYIEDLVLMLPQNIWDNLYSRYGGGPAVNHLYICHTCQIEAEKIEKRRKTELEIFIRLNRAFQKEDSPATFYCISMQWFREWESFVKGKDGDPPGPIDNTKIAVTKCGNVMLRQGADSGQISEETWNFLQSIYGGGPEVILRPPVVHVDPDILQAEEKIEVETRSL
B1 was tested, and the binding was “binds”.

These are yes or no findings as the source states them, for the method shown. Binding seen in cells or lysates may run through a third protein. A result given as binding can be weak or reduced; the word gives no strength. Sequences can lack the tags named with a protein.
